Source: PubChem BioAssay AID2685 (National Center for Advancing Translational Sciences (NCATS), 2010)
This is one part of the list. These are further read-outs of the screen, such as a control signal, another cell line or another target. No call is given for them. Most of these compounds were active or inconclusive in the main read-out, so they are no random draw. Words in brackets tell the shape of the fitted curve; partial curves, single points and poor fits give uncertain potencies.

Assay: qHTS Assay for Lipid Storage Modulators in Drosophila S3 Cells;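 on cell number change: cells counted by Cell Tracker Red CMTPX staining in the red channel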
Details: BODIPY lipid droplet fluorescence, 18-24 h; for cell number change: measured here: cell count max response, cells fed with added oleic acid
Procedure, shortened: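 Drosophila S3 cells loaded with oleic acid (400 uM, as added) and compounds at several concentrations; lipid droplets imaged by 488-nm laser-scanning cytometry, 500–530 nm intensity and object ratio to cell channel. Percent activity normalized to 20 uM Triacsin C.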

[1] = measured here: cell number channel AC50, cells fed with added oleic acid
[2] = measured here: lipid fluorescence (Fed channel) AC50, cells fed with added oleic acid

Row | Structure (SMILES) | cell number change | AC50 [1] | AC50 [2]
1 | O=C(NCc1cccc(Cl)c1)C1=CC=CN2CCS(=O)(=O)N=C12 | -31.4% | 14.6 µM [falling, partial curve, poor fit] | 0.82 µM [falling, full curve, poor fit]
2 | COc1ccc(NC(=O)CN2CCN(c3c(C)cc(C)cc3C)CC2)cc1 | 13.8% |  | 
3 | COc1ccc(NC(=O)c2ccc3c(c2)OCO3)cc1 | -6.04% |  | 6.51 µM [rising, single point]
4 | O=C(NCCCn1ccnc1)C(=O)NCC(c1cccnc1)N1CCN(c2ccc(F)cc2)CC1 (stereo not given) | -5.2% |  | 23.1 µM [rising, single point]
5 | COc1cc(C2Oc3ccccc3C=C2[N+](=O)[O-])cc(OC)c1OC (stereo not given) | -52.6% | 18.4 µM [falling, partial curve] | 20.6 µM [falling, partial curve]
6 | Cc1cc(Cl)ccc1OCc1n[nH]c(=S)n1C1CCCCC1 | -84.1% | 29.1 µM [falling, single point] | 0.13 µM [rising, full curve, poor fit]
7 | Cc1ccc(OCC(=O)N(Cc2cccc(Cl)c2)C2CCS(=O)(=O)C2)cc1C (stereo not given) | 0.989% |  | 
8 | CCn1c(SCC(=O)N2c3ccccc3CCc3ccccc32)nnc1-c1ccc(OC)cc1 | -4.68% |  | 18.4 µM [falling, single point]
9 | CSc1nc2nc3c(c(=O)n2[nH]1)CCCC3 | -26.2% | 0.291 µM [falling, full curve] | 18.4 µM [falling, partial curve]
10 | Cc1cc(C)c(S(=O)(=O)Nc2ccc3c(c2)CCC3)c(C)c1 | -92.9% | 16.4 µM [falling, partial curve] | 
11 | O=C(c1cc(COc2ccc(F)cc2Cl)on1)N1CCN(C2CCCCC2)C(=O)C1 | -25.8% | 0.291 µM [falling, full curve, poor fit] | 0.58 µM [rising, single point]
12 | COc1ccc(C(=O)/C=C/c2ccc(OC3CSC3)cc2)cc1OC | -2.79% |  | 0.13 µM [falling, partial curve, poor fit]
13 | N#CCCN(C(=O)CSc1nc(-c2ccccc2)cn1N)c1ccc(F)cc1 | 65.1% | 0.0058 µM [rising, full curve, poor fit] | 
14 | Cc1ccc(Nc2ccc(C(N)=O)cc2[N+](=O)[O-])cc1 | -31.3% | 0.651 µM [falling, full curve] | 23.1 µM [falling, partial curve]
15 | COc1ccccc1C(=O)NC(=O)COC(=O)CCOc1ccc(C)cc1 | 2.37% |  | 3.26 µM [falling, single point]
16 | N=c1c2ccccc2nnn1-c1ccc(C(F)(F)F)cc1 | 6.18% | 0.58 µM [rising, full curve, poor fit] | 
17 | COc1cc(OC)c(OC)cc1/C=N/NC(=O)C[n+]1ccccc1 | -65.5% | 29.1 µM [falling, single point] | 1.84 µM [falling, partial curve]
18 | CC(NS(=O)(=O)c1ccc(Cl)cc1)C(=O)OCC(=O)Nc1ccc(N(C)C)cc1 (stereo not given) | -22.8% |  | 29.1 µM [rising, single point]
19 | Cc1sc2nc(C3CC3)nc(SCC(=O)N3CCCc4ccccc43)c2c1C | 11.6% |  | 16.4 µM [rising, single point]

Row | Structure (SMILES) | cell number change | AC50 [1] | AC50 [2]
20 | c1ccc(-c2nnsc2-c2ncc[nH]2)cc1 |  |  | 1.64 µM [rising, single point]
21 | O=C(CN1C2=NCCCN2c2ccccc21)c1cccc(Br)c1 | 16.7% |  | 7.31 µM [rising, partial curve]
22 | O=C(C1CCN(S(=O)(=O)c2cccnc2)CC1)N1CCN(c2cccc(Cl)c2)CC1 | 17.5% |  | 0.411 µM [rising, single point]
23 | CCN(CC)S(=O)(=O)c1ccc(NC(=O)CSc2nnc(-c3cccc(OC)c3)n2C)cc1 | -26.6% | 4.61 µM [falling, full curve, poor fit] | 3.66 µM [falling, full curve]
24 | CC(=O)c1cc2c(cc1NS(=O)(=O)c1ccccc1Br)OCO2 | -8.26% |  | 
25 | O=c1[nH]c(CSc2ncc(C(F)(F)F)cc2Cl)nc2cc(C(F)(F)F)ccc12 | 20.9% |  | 29.1 µM [rising, single point]
26 | CC(C)(C)OC(=O)NCCCCCc1cn(CC(=O)NCCCCCCCCCCC(=O)N2CCN(C(=O)OC(C)(C)C)CC2)nn1 | -20.2% |  | 5.8 µM [falling, partial curve]
27 | Cn1nc(C(F)(F)F)c2cc(C(=O)O)sc21 | -3.51% | 0.82 µM [falling, full curve] | 
28 | COc1cccc(C(=O)Nc2ccc(N3CCCC3)cc2)c1 | 9.28% |  | 
29 | Cc1ccc(NS(=O)(=O)c2ccc(C(=O)OCC(=O)N3CCCCC3)cc2)cc1 | 6.88% |  | 10.3 µM [falling, partial curve]
30 | CCOC(=O)c1c(NC(=O)c2ccno2)c2cc([N+](=O)[O-])ccc2n1C | -18.6% |  | 29.1 µM [rising, single point]
31 | C=CCn1c(-c2cccc(Cl)c2)n[nH]c1=S | 14.9% |  | 4.11 µM [rising, full curve]
32 | CC(C)n1cnnc1SCC(=O)Nc1ccc(Br)cc1F |  |  | 7.31 µM [rising, partial curve]
33 | CCCn1c(SCC(=O)Nc2nnc(-c3ccccc3)s2)nnc1-c1ccccn1 | -98.1% |  | 
34 | CCC(=O)Nc1nc2ccc(NC(=O)COc3ccccc3)cc2s1 | 8.41% |  | 0.00461 µM [rising, full curve, poor fit]
35 | COc1cc(-c2cc(C(=O)Nc3ccc(S(=O)(=O)Nc4ncccn4)cc3)c3ccccc3n2)cc(OC)c1OC | -13.5% |  | 0.0517 µM [falling, full curve, poor fit]
36 | Cc1ccc2c(c1)N(C(=O)CCC(=O)Nc1ccccc1Br)CC(C)O2 (stereo not given) | 5.19% |  | 4.61 µM [rising, single point]
37 | Cc1ccc(CNC(=O)C2C3C=CC4(CN(Cc5cccnc5)C(=O)C24)O3)cc1 (stereo not given) | 11.1% |  | 18.4 µM [rising, single point]

Sorted by molar mass (falling): some entries from above
Row | Structure (SMILES) | cell number change | AC50 [1] | AC50 [2]
4 | O=C(NCCCn1ccnc1)C(=O)NCC(c1cccnc1)N1CCN(c2ccc(F)cc2)CC1 (stereo not given) | -5.2% |  | 23.1 µM [rising, single point]
22 | O=C(C1CCN(S(=O)(=O)c2cccnc2)CC1)N1CCN(c2cccc(Cl)c2)CC1 | 17.5% |  | 0.411 µM [rising, single point]
7 | Cc1ccc(OCC(=O)N(Cc2cccc(Cl)c2)C2CCS(=O)(=O)C2)cc1C (stereo not given) | 0.989% |  | 
24 | CC(=O)c1cc2c(cc1NS(=O)(=O)c1ccccc1Br)OCO2 | -8.26% |  | 
32 | CC(C)n1cnnc1SCC(=O)Nc1ccc(Br)cc1F |  |  | 7.31 µM [rising, partial curve]
30 | CCOC(=O)c1c(NC(=O)c2ccno2)c2cc([N+](=O)[O-])ccc2n1C | -18.6% |  | 29.1 µM [rising, single point]
34 | CCC(=O)Nc1nc2ccc(NC(=O)COc3ccccc3)cc2s1 | 8.41% |  | 0.00461 µM [rising, full curve, poor fit]
3 | COc1ccc(NC(=O)c2ccc3c(c2)OCO3)cc1 | -6.04% |  | 6.51 µM [rising, single point]
27 | Cn1nc(C(F)(F)F)c2cc(C(=O)O)sc21 | -3.51% | 0.82 µM [falling, full curve] | 
20 | c1ccc(-c2nnsc2-c2ncc[nH]2)cc1 |  |  | 1.64 µM [rising, single point]
